According to the supplement of paper PMC12819154, “High-throughput peptide-centric local stability assay extends protein–ligand identification to membrane proteins, tissues and bacteria” (Nature Structural & Molecular Biology, 2025):
Some of the results follow. Most entries show no effect beyond the scatter of the controls.

Amino acid sequences for entries named in this document (tags omitted). A change or cut given only in a name is not applied to a line headed by its entry.
UniProt Q7TMV1: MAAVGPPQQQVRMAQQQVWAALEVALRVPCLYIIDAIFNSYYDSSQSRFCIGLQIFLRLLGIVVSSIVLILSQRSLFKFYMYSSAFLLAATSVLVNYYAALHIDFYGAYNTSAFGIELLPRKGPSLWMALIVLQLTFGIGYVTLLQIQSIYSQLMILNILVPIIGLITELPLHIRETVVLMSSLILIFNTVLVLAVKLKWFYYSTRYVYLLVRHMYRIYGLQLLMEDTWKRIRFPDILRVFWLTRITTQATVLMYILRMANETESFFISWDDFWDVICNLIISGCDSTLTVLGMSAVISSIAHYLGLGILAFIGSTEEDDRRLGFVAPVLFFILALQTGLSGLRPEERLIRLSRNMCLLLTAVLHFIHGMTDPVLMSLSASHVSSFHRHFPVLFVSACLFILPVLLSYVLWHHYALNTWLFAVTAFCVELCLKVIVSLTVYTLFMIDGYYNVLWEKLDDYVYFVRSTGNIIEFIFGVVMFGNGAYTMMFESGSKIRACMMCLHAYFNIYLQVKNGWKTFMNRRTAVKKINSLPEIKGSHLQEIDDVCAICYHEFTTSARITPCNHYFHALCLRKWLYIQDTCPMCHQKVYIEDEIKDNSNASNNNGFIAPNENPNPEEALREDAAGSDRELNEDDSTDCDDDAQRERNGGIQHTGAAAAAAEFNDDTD
UniProt Q78JN3: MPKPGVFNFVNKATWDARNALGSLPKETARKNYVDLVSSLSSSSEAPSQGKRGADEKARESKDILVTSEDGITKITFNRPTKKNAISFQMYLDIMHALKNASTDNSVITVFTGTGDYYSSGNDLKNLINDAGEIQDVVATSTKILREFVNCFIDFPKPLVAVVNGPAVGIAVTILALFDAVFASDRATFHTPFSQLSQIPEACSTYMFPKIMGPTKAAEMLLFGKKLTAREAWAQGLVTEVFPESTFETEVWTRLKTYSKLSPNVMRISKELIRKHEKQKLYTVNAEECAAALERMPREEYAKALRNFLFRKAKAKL
UniProt Q78JW9: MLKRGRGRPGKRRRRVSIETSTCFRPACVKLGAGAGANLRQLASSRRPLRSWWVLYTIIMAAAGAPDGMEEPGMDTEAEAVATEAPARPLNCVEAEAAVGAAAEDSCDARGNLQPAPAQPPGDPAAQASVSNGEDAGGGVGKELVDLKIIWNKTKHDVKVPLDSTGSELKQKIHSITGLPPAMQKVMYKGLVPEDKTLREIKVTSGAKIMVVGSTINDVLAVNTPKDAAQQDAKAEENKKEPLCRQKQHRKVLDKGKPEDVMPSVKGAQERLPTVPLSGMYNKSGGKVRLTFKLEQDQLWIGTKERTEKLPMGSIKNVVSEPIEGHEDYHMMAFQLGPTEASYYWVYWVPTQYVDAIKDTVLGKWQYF
UniProt Q80UP8: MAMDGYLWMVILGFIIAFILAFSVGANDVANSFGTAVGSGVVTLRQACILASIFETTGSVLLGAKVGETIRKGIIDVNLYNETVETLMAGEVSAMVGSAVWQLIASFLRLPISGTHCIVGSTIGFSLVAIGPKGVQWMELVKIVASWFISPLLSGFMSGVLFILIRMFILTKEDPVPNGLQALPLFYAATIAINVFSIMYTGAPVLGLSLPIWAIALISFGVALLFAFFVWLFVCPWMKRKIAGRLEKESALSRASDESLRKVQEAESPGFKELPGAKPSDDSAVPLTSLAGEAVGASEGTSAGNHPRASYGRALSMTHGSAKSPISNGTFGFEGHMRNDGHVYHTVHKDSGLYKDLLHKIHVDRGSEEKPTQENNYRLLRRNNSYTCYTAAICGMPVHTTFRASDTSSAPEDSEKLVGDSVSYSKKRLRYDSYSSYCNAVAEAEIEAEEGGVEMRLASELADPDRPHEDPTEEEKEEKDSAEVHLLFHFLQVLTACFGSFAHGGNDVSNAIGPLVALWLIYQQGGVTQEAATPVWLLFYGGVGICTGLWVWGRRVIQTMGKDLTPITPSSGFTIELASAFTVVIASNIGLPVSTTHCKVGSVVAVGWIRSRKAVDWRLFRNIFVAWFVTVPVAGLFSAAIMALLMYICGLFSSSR
UniProt Q7TPW1: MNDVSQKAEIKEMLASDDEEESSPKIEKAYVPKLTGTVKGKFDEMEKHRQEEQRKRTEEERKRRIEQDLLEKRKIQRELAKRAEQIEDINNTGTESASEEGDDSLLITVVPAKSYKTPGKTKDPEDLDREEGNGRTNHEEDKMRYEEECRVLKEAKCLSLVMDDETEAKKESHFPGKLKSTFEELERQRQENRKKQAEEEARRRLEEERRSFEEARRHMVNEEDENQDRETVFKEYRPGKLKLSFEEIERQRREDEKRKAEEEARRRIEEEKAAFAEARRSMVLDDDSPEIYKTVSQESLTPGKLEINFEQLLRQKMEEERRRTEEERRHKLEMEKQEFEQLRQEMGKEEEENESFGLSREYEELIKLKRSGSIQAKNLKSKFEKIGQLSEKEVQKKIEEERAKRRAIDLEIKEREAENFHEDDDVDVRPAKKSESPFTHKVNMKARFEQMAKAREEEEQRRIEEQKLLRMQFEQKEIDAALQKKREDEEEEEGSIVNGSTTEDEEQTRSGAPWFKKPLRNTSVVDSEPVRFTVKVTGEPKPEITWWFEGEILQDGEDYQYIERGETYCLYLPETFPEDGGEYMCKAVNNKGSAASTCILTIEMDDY
UniProt Q6ZQI3: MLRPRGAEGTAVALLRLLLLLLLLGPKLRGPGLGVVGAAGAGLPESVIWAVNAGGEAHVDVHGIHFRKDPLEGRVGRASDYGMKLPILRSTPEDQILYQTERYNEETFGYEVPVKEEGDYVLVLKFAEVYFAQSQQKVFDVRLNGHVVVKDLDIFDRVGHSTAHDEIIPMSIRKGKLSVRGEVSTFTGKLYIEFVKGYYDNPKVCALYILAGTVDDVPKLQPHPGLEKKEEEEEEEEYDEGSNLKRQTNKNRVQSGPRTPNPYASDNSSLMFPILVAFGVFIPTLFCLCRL
UniProt Q78T54: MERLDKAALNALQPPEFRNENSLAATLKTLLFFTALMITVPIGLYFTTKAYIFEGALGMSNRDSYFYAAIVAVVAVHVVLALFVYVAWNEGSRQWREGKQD
UniProt Q71FD7: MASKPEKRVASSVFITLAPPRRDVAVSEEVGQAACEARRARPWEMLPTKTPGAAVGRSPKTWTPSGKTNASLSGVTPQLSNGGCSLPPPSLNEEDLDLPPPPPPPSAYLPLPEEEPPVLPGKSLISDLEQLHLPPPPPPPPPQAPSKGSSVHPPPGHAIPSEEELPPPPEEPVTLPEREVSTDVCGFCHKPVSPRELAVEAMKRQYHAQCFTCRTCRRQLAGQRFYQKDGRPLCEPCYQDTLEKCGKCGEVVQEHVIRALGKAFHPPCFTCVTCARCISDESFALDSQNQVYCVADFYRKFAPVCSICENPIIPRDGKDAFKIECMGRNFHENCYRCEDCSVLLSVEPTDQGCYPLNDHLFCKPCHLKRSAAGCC
UniProt Q7TMY4: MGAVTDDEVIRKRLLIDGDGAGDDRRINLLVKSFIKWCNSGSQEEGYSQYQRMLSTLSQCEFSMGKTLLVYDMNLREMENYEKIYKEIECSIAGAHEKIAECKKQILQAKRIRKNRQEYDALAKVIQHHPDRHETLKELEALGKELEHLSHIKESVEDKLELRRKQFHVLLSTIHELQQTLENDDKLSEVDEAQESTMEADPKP
UniProt Q7TQD2, whole entry: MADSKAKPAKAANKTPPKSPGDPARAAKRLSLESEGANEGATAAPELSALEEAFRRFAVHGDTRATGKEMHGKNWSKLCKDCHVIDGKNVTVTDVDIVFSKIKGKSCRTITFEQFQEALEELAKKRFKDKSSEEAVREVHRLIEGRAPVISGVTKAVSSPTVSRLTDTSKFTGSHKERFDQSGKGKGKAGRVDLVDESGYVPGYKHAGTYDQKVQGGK
UniProt Q7TMQ7: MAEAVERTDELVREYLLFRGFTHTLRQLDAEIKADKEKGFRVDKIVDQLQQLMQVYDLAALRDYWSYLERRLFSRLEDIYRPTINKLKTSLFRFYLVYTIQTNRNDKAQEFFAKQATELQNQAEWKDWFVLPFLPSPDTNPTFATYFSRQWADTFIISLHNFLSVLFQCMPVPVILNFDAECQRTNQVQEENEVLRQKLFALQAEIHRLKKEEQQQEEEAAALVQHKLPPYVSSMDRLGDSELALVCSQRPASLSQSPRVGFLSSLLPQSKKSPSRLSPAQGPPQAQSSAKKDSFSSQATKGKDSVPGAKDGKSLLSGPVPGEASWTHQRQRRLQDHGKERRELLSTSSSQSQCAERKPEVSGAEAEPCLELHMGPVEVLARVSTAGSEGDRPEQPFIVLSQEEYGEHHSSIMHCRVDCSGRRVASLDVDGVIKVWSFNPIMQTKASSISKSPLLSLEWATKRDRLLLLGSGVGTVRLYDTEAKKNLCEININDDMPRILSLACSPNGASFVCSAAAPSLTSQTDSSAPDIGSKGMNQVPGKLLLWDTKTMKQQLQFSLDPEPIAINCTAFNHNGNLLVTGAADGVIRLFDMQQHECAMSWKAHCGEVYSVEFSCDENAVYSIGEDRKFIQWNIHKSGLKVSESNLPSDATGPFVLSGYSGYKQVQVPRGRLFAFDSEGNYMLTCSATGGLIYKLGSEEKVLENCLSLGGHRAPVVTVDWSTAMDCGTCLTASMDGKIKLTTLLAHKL
UniProt Q80TN4: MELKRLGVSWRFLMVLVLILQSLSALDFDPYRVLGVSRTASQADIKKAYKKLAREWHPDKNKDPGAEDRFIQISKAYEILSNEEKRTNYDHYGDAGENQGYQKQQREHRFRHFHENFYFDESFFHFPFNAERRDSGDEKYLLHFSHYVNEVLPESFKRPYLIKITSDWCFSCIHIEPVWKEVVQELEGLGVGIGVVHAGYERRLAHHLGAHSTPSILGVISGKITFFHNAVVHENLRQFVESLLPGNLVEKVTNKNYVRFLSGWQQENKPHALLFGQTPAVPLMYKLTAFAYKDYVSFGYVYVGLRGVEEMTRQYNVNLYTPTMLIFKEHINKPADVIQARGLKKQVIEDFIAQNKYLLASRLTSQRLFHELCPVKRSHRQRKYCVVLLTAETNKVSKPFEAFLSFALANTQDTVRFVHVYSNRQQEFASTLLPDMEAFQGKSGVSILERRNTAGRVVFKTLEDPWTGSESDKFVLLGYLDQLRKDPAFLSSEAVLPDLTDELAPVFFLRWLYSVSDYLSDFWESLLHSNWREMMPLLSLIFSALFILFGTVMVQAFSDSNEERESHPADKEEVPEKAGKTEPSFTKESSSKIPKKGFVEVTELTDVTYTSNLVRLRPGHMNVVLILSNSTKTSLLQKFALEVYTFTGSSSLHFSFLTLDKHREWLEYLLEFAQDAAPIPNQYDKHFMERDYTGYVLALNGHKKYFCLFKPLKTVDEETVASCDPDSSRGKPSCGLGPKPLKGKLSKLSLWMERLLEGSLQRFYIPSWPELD
UniProt Q791V5: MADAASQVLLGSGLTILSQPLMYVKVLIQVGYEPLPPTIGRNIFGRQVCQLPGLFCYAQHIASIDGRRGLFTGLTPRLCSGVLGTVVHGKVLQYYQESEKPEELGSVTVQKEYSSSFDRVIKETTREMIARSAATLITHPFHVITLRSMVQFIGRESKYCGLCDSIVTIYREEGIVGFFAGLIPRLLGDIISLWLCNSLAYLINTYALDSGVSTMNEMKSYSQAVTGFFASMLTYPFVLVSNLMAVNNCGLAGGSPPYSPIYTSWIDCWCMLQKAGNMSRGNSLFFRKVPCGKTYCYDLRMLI
UniProt Q7TSK7: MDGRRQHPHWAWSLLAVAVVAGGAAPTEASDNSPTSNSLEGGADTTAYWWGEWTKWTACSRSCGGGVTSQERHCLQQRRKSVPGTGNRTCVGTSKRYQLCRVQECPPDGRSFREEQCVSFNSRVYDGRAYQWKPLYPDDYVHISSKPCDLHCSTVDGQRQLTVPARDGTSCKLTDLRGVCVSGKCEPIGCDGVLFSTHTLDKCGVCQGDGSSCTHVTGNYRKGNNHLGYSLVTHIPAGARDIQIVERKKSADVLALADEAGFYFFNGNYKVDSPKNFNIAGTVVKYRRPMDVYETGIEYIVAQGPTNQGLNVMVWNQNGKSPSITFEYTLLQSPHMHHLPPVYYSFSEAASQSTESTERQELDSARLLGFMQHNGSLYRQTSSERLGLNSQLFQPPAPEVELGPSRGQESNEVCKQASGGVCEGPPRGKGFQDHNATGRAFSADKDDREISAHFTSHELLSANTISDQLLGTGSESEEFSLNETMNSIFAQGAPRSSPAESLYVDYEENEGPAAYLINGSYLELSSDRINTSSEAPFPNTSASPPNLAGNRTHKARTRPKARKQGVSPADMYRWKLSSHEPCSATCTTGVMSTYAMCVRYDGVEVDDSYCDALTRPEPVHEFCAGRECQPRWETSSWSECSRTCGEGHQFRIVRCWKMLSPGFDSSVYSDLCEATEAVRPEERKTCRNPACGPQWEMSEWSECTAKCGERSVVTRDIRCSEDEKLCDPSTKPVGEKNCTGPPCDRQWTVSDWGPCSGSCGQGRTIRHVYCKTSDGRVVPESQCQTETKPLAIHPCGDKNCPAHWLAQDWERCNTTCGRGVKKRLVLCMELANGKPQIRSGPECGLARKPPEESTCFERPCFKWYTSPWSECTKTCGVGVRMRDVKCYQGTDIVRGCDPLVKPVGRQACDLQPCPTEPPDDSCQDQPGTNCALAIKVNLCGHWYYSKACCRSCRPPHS

Compound: CN[C@@H]1C[C@H]2O[C@@](C)([C@@H]1OC)n1c3ccccc3c3c4c(c5c6ccccc6n2c5c31)C(=O)NC4 [staurosporine]
Assay: log2 fold change of tryptic peptide abundance, ligand vs vehicle (limited proteolysis) (log2 ratio); higher = more trypsin-susceptible (destabilized)
Settings: ligand concentration: 20 uM; sample: mouse liver crude lysate; replicate design: treated separately

Row | Target | log2 fold change
1 | UniProt Q7TMV1 (peptide sequence: ITPCNHYFHALCLR, peptide start residue: 560) | 0.664
2 | UniProt Q6ZPS6 (peptide sequence: AHDWDREK, peptide start residue: 262) | 0.513
3 | UniProt Q7TMC8 (peptide sequence: RIPEPELWLAVGPR, peptide start residue: 754) | -0.373
4 | UniProt Q7TSI0 (peptide sequence: THTGEKPYECNECGK, peptide start residue: 424) | 0.596
5 | UniProt Q78JN3 (peptide sequence: ESKDILVTSEDGITK, peptide start residue: 136) | -0.187
6 | UniProt Q80U19 (peptide sequence: ELSVIDGR, peptide start residue: 683) | -0.208
7 | UniProt Q6ZPJ3 (peptide sequence: GLQEGYENSR, peptide start residue: 1086) | 0.471
8 | UniProt Q7TMK6 (peptide sequence: EANEELR, peptide start residue: 416) | -0.37
9 | UniProt Q78JW9 (peptide sequence: GKPEDVMPSVK, peptide start residue: 256) | 0.168
10 | UniProt Q7TPZ8 (peptide sequence: VRELEELEHLK, peptide start residue: 39) | 0.472
11 | UniProt Q80UM7 (peptide sequence: AAAAEGARPLER, peptide start residue: 10) | -0.253
12 | UniProt Q80UZ2 (peptide sequence: INPFSSSTNK, peptide start residue: 634) | -0.166
13 | UniProt Q80UF4 (peptide sequence: VQVVVLENER, peptide start residue: 150) | 0.167
14 | UniProt Q80UP8 (peptide sequence: ALSMTHGSAK, peptide start residue: 314) | -0.199
15 | UniProt Q78WZ7 (peptide sequence: LSTTSLQLK, peptide start residue: 198) | 0.261
16 | UniProt Q7TPW1 (peptide sequence: TKDPEDLDREEGNGR, peptide start residue: 121) | -0.114
17 | UniProt Q80U04 (peptide sequence: RQDDTDQGR, peptide start residue: 268) | -0.767
18 | UniProt Q6ZQ08 (peptide sequence: CPVVLAPLLYPEKR, peptide start residue: 219) | -0.738
19 | UniProt Q7TN99 (peptide sequence: RFGPLVVDWPHKAESK, peptide start residue: 286) | -0.21
20 | UniProt Q7TS75 (peptide sequence: TSGADQSVPGAK, peptide start residue: 184) | -0.272
21 | UniProt Q7TQJ8 (peptide sequence: SYHPGCFR, peptide start residue: 547) | -0.862
22 | UniProt Q80V23 (peptide sequence: GNCLLHGK, peptide start residue: 229) | -0.83
23 | UniProt Q80U56 (peptide sequence: EQMGSDQTHLFQK, peptide start residue: 349) | -0.186
24 | UniProt Q6ZQI3 (peptide sequence: LYIEFVK, peptide start residue: 190) | 0.277
25 | UniProt Q78T54 (peptide sequence: AALNALQPPEFR, peptide start residue: 7) | 0.14

Retrieved one by one from the list above, 2 records:
Row | Target | log2 fold change
6 | UniProt Q80U19 (peptide sequence: ELSVIDGR, peptide start residue: 683) | -0.208
10 | UniProt Q7TPZ8 (peptide sequence: VRELEELEHLK, peptide start residue: 39) | 0.472

The listing continues.

Row | Target | log2 fold change
26 | UniProt Q7TMB8 (peptide sequence: LVHPTDKYSNK, peptide start residue: 416) | 0.512
27 | UniProt Q75N62 (peptide sequence: SAFFSQLR, peptide start residue: 499) | -0.356
28 | UniProt Q80TG1 (peptide sequence: LVRPSSIVPLSK, peptide start residue: 601) | 0.643
29 | UniProt Q80TF6 (peptide sequence: HSEIPYR, peptide start residue: 621) | -0.134
30 | UniProt Q7TSH4 (peptide sequence: HCGSAIPDKPSLNK, peptide start residue: 284) | 0.375
31 | UniProt Q7TN29 (peptide sequence: EDAQLPRK, peptide start residue: 168) | -0.53
32 | UniProt Q6ZQ93 (peptide sequence: TTLLELQK, peptide start residue: 1972) | 0.357
33 | UniProt Q71FD7 (peptide sequence: CGEVVQEHVIR, peptide start residue: 248) | 1.79
34 | UniProt Q80V72 (peptide sequence: ELLGPVLK, peptide start residue: 324) | -0.417
35 | UniProt Q7TN31 (peptide sequence: NAESDNQELR, peptide start residue: 60) | -0.48
36 | UniProt Q7TSG2 (peptide sequence: ELNGGEAVPGVFPSKADEK, peptide start residue: 384) | -0.169
37 | UniProt Q7TMY4 (peptide sequence: VIQHHPDRHETLK, peptide start residue: 125) | 0.36
38 | UniProt Q7TQD2 (peptide sequence: DCHVIDGK, peptide start residue: 81) | -0.219
39 | UniProt Q7TMQ7 (peptide sequence: LFALQAEIHR, peptide start residue: 199) | 0.504
40 | UniProt Q80T69 (peptide sequence: EVQTVCAGLTR, peptide start residue: 277) | -0.294
41 | UniProt Q7TSQ8 (peptide sequence: RKDDVELSDFHGK, peptide start residue: 866) | 0.237
42 | UniProt Q80TN4 (peptide sequence: DYTGYVLALNGHKK, peptide start residue: 691) | 0.358
43 | UniProt Q791V5 (peptide sequence: SAATLITHPFHVITLR, peptide start residue: 132) | -0.822
44 | UniProt Q80UW8 (peptide sequence: IQAGDPVAR, peptide start residue: 173) | 0.0494
45 | UniProt Q7TSF4 (peptide sequence: REEAGTLLQHLR, peptide start residue: 70) | -0.281
46 | UniProt Q7TQE6 (peptide sequence: KLEEATAAR, peptide start residue: 482) | -0.325
47 | UniProt Q7TQG1 (peptide sequence: SLQLPASPAPEPSTRPAYK, peptide start residue: 967) | -0.237
48 | UniProt Q78ZA7 (peptide sequence: KYAALYQPLFDKR, peptide start residue: 94) | -0.471
49 | UniProt Q7TSK7 (peptide sequence: VQECPPDGR, peptide start residue: 102) | 0.311
50 | UniProt Q80TV8 (peptide sequence: LLHNHLK, peptide start residue: 1073) | -0.398
